In PubChem BioAssay AID590 (National Center for Advancing Translational Sciences (NCATS), 2007):
Among all 59,000 compounds or so, about 6,500 (11%) were called active. Inconclusive results, whose numbers are uncertain, are shown with a selection of clear calls. No stated cut-off is given here; in the data, active means max dye-equivalent concentration above about 10 nM; inconclusive means mostly about 1.1 nM to 9.6 nM; inactive means weaker than that.

Assay: qHTS Assay for Spectroscopic Profiling in A350 Spectral Region
Settings: Compound autofluorescence, 340/450 nm, Alexa 350 dye-equivalents; hits give high values

SMILES	max dye-equivalent concentration
O=C(c1cc(C(F)(F)F)cc(C(F)(F)F)c1)N1CCC2(CC1)CN(c1ncccn1)C2	inactive
O=c1c(CCc2ccccc2)nc2cnc(N3CCOCC3)nc2n1-c1ccccc1	inconclusive: 1.6 nM
CC(C)=CC(=O)OCC(=O)Nc1nc(C)c(Cl)cc1Cl	inconclusive: 1.6 nM
COC(=O)c1c(-c2ccccc2)csc1NC(=O)c1ccco1	active: 440 nM
CC(=O)c1cc(C#N)c(SCCC(C)C)nc1C	active: 160 nM
CCn1c(=O)c(C(=O)NCCCO)c(O)c2ccccc21	inactive
O=c1[nH]c2cc3c(cc2cc1CN(Cc1ccccc1)Cc1nnnn1Cc1ccco1)OCCO3	active: 63 nM
COCCN(CC(=O)Nc1ccccc1C)S(=O)(=O)c1ccc(S(=O)(=O)N2CCCC2)cc1	inconclusive: 3.6 nM
CCOC(=O)CSc1cc(=O)n(C)c2cc(Cl)ccc12	inconclusive: 2.1 nM
O=C(/C=C\c1ccc(O)c(O)c1)O[C@@H]1C[C@](O)(C(=O)O)C[C@@H](O)[C@@H]1O	inconclusive: 1.6 nM
Cc1ccc(Nc2nc(N)nc(CN3CCN(Cc4ccc5c(c4)OCO5)CC3)n2)cc1	inconclusive: 1.5 nM
COc1ccc(OC)c(C2NC(=O)c3sc(=S)n(-c4ccccc4)c3N2)c1 (centres undefined)	inconclusive: 2.5 nM
COc1ccc2[nH]c(=O)c(CN(Cc3nnnn3CCc3ccccc3)CC3CCCO3)cc2c1 (centres undefined)	active: 300 nM
COc1ccccc1-c1c(C)oc2cc(OC(=O)c3ccco3)ccc2c1=O	inconclusive: 7.7 nM
CCCCCn1c(N2CCC(C(N)=O)CC2)nc2c1c(=O)[nH]c(=O)n2C	inactive
N#Cc1c(N)n(CCCN2CCOCC2)c2nc3ccccc3nc12	active: 8200 nM
Cc1cc(=O)oc2n[nH]c(-c3ccccc3)c12	inconclusive: 1.2 nM
COc1cc(C(=O)N(Cc2ccco2)Cc2cc3ccccc3[nH]c2=O)cc(OC)c1OC	inconclusive: 1.4 nM
Cc1nn(Cc2ccccc2)c(C)c1NC(=O)CSc1nnc(-c2cc(Cl)ccc2O)n1C	inactive
Cc1occc1-c1nnc(SCC(=O)c2ccc(F)cc2)n1Cc1ccco1	inconclusive: 2.7 nM
CCOC(=O)c1ccccc1N/C=C1\CCCC1=O	active: 12 nM
COC(=O)c1cc(OC)c(OC)cc1NC(=O)Nc1ccc(OC)cc1OC	inconclusive: 2.2 nM
CCOC(=O)CC(=O)CSc1ccc2nnc(-c3cccc(F)c3)n2n1	inconclusive: 3.1 nM
CCCCNC(=O)c1cc2c(=O)n3cccc(C)c3nc2n(Cc2ccccc2)c1=N	active: 2200 nM

Three entries out of the list, sorted by formula weight, falling.
SMILES	max dye-equivalent concentration
Cc1nn(Cc2ccccc2)c(C)c1NC(=O)CSc1nnc(-c2cc(Cl)ccc2O)n1C	inactive
COc1ccc2[nH]c(=O)c(CN(Cc3nnnn3CCc3ccccc3)CC3CCCO3)cc2c1 (centres undefined)	active: 300 nM
CCn1c(=O)c(C(=O)NCCCO)c(O)c2ccccc21	inactive
